# In the supplement of paper PMC11438910:
# Some of the results follow. Most of these values are background signal.
# B1: 4-80.1 (protein)
# chain 1: QVQLQESGPGLVKPSETLSLTCAVSGIPISTYWWSWIRQTPEKGLEWIGEIDGNGGGTNYNPSLQSRVTFSKDASKNQFSLRLNSVTAADTAVFYCARLWGNAYWGQGVLVTVSS
# chain 2: DVVMTQSPLSLPINPGQPASISCRSSQSLVYSDGKTYLTWYQQKPGQPPRRLIYQVSKRDSGVPDRFSGSGAGTDFTLKISRVESEDVGIYYCLQGTHLPYTFGQGTKVEIK
# B2: 4-127.1 (protein)
# chain 1: QVQLQESGPGLVKPSETLSLTCAVSDYSINTGHGWTWIRQPPGKGLEWIGYIGGSSGSPNYNPSLKSRVTISKDTSKNELSLKLNSVTAADTAVYYCARRIPADRSGNDFWGQGVLVTVSS
# chain 2: QSVLTQPPSVSGDPGQRVTISCTGSSSNIGGFYGYWYQQFPGTAPKLLIYDNNKRPSGISDRFSGSKSGTSASLTITGLQPGDEADYYCGSWDSSLSAHVFGSGTKLTVL
# Experiments:
# Assay in all cases: fluorescence intensity of antibody binding to polysaccharide-coupled beads; higher = stronger binding
# [1] = target: pneumococcal polysaccharide C-Poly-1
# [2] = target: pneumococcal polysaccharide C-Poly-2
# [3] = target: pneumococcal polysaccharide Pn1
# [4] = target: pneumococcal polysaccharide Pn10A
# [5] = target: pneumococcal polysaccharide Pn10B
# [6] = target: pneumococcal polysaccharide Pn10C
# [7] = target: pneumococcal polysaccharide Pn10F
# [8] = target: pneumococcal polysaccharide Pn11A
# [9] = target: pneumococcal polysaccharide Pn6A
# [10] = target: pneumococcal polysaccharide Pn6B
# [11] = target: pneumococcal polysaccharide Pn6C
# [12] = target: pneumococcal polysaccharide Pn6D
# [13] = target: pneumococcal polysaccharide Pn7A
# [14] = target: pneumococcal polysaccharide Pn7B
# [15] = target: pneumococcal polysaccharide Pn7C
# [16] = target: pneumococcal polysaccharide Pn7F
# [17] = target: pneumococcal polysaccharide Pn8
# [18] = target: pneumococcal polysaccharide Pn9A
# [19] = target: pneumococcal polysaccharide Pn9L
# [20] = target: pneumococcal polysaccharide Pn9N
# [21] = target: pneumococcal polysaccharide Pn9V
# [22] = antibody concentration 0.1 ng/mL
# [23] = antibody concentration 0.534724 ng/mL
# [24] = antibody concentration 2.8593 ng/mL
# [25] = antibody concentration 15.2894 ng/mL
# [26] = antibody concentration 81.7561 ng/mL
# [27] = antibody concentration 437.17 ng/mL
# [28] = antibody concentration 2337.65 ng/mL
# [29] = antibody concentration 12500 ng/mL
binder,measurement,setting,value
B1,fluorescence intensity,[1]; [22],27.2 MFI
same,fluorescence intensity,[1]; [23],25.5 MFI
same,fluorescence intensity,[1]; [24],27 MFI
same,fluorescence intensity,[1]; [25],27 MFI
same,fluorescence intensity,[1]; [26],39.5 MFI
same,fluorescence intensity,[1]; [27],83.5 MFI
same,fluorescence intensity,[1]; [28],148 MFI
same,fluorescence intensity,[1]; [29],216 MFI
same,fluorescence intensity,[2]; [22],21 MFI
same,fluorescence intensity,[2]; [23],20 MFI
same,fluorescence intensity,[2]; [24],20 MFI
same,fluorescence intensity,[2]; [25],22.5 MFI
same,fluorescence intensity,[2]; [26],23.8 MFI
same,fluorescence intensity,[2]; [27],34.5 MFI
same,fluorescence intensity,[2]; [28],51.5 MFI
same,fluorescence intensity,[2]; [29],100 MFI
same,fluorescence intensity,[3]; [22],14 MFI
same,fluorescence intensity,[3]; [23],13 MFI
same,fluorescence intensity,[3]; [24],14.8 MFI
same,fluorescence intensity,[3]; [25],18.8 MFI
same,fluorescence intensity,[3]; [26],64.5 MFI
same,fluorescence intensity,[3]; [27],262 MFI
same,fluorescence intensity,[3]; [28],462 MFI
same,fluorescence intensity,[3]; [29],566 MFI
same,fluorescence intensity,[4]; [22],27 MFI
same,fluorescence intensity,[4]; [23],26.2 MFI
same,fluorescence intensity,[4]; [24],27.2 MFI
same,fluorescence intensity,[4]; [25],32.5 MFI
same,fluorescence intensity,[4]; [26],88 MFI
same,fluorescence intensity,[4]; [27],438 MFI
same,fluorescence intensity,[4]; [28],856 MFI
same,fluorescence intensity,[4]; [29],1080 MFI
same,fluorescence intensity,[5]; [22],26 MFI
same,fluorescence intensity,[5]; [23],26.5 MFI
same,fluorescence intensity,[5]; [24],34.2 MFI
same,fluorescence intensity,[5]; [25],164 MFI
same,fluorescence intensity,[5]; [26],612 MFI
same,fluorescence intensity,[5]; [27],2520 MFI
same,fluorescence intensity,[5]; [28],3680 MFI
same,fluorescence intensity,[5]; [29],3500 MFI
same,fluorescence intensity,[6]; [22],16.2 MFI
same,fluorescence intensity,[6]; [23],16.5 MFI
same,fluorescence intensity,[6]; [24],17 MFI
same,fluorescence intensity,[6]; [25],18.5 MFI
same,fluorescence intensity,[6]; [26],33.5 MFI
same,fluorescence intensity,[6]; [27],312 MFI
same,fluorescence intensity,[6]; [28],898 MFI
same,fluorescence intensity,[6]; [29],1360 MFI
same,fluorescence intensity,[7]; [22],20.5 MFI
same,fluorescence intensity,[7]; [23],20.5 MFI
same,fluorescence intensity,[7]; [24],21.2 MFI
same,fluorescence intensity,[7]; [25],33 MFI
same,fluorescence intensity,[7]; [26],128 MFI
same,fluorescence intensity,[7]; [27],714 MFI
same,fluorescence intensity,[7]; [28],1400 MFI
same,fluorescence intensity,[7]; [29],1710 MFI
same,fluorescence intensity,[8]; [22],30.5 MFI
same,fluorescence intensity,[8]; [23],30 MFI
same,fluorescence intensity,[8]; [24],31.5 MFI
same,fluorescence intensity,[8]; [25],34.5 MFI
B2,fluorescence intensity,[9]; [26],20.5 MFI
same,fluorescence intensity,[9]; [27],22 MFI
same,fluorescence intensity,[9]; [28],28.8 MFI
same,fluorescence intensity,[9]; [29],35.5 MFI
same,fluorescence intensity,[10]; [22],17.2 MFI
same,fluorescence intensity,[10]; [23],19.5 MFI
same,fluorescence intensity,[10]; [24],18.5 MFI
same,fluorescence intensity,[10]; [25],19.8 MFI
same,fluorescence intensity,[10]; [26],19.5 MFI
same,fluorescence intensity,[10]; [27],20 MFI
same,fluorescence intensity,[10]; [28],25.5 MFI
same,fluorescence intensity,[10]; [29],35.2 MFI
same,fluorescence intensity,[11]; [22],20.5 MFI
same,fluorescence intensity,[11]; [23],17 MFI
same,fluorescence intensity,[11]; [24],22.5 MFI
same,fluorescence intensity,[11]; [25],27 MFI
same,fluorescence intensity,[11]; [26],51.5 MFI
same,fluorescence intensity,[11]; [27],52.2 MFI
same,fluorescence intensity,[11]; [28],55.8 MFI
same,fluorescence intensity,[11]; [29],65 MFI
same,fluorescence intensity,[12]; [22],15.8 MFI
same,fluorescence intensity,[12]; [23],18.5 MFI
same,fluorescence intensity,[12]; [24],16.5 MFI
same,fluorescence intensity,[12]; [25],17.5 MFI
same,fluorescence intensity,[12]; [26],16.5 MFI
same,fluorescence intensity,[12]; [27],16 MFI
same,fluorescence intensity,[12]; [28],18.8 MFI
same,fluorescence intensity,[12]; [29],21 MFI
same,fluorescence intensity,[13]; [22],20.2 MFI
same,fluorescence intensity,[13]; [23],21 MFI
same,fluorescence intensity,[13]; [24],19.5 MFI
same,fluorescence intensity,[13]; [25],20.2 MFI
same,fluorescence intensity,[13]; [26],19.5 MFI
same,fluorescence intensity,[13]; [27],20 MFI
same,fluorescence intensity,[13]; [28],27 MFI
same,fluorescence intensity,[13]; [29],82 MFI
same,fluorescence intensity,[14]; [22],16.5 MFI
same,fluorescence intensity,[14]; [23],15.5 MFI
same,fluorescence intensity,[14]; [24],15.5 MFI
same,fluorescence intensity,[14]; [25],16.5 MFI
same,fluorescence intensity,[14]; [26],17.8 MFI
same,fluorescence intensity,[14]; [27],15.5 MFI
same,fluorescence intensity,[14]; [28],17.8 MFI
same,fluorescence intensity,[14]; [29],28.5 MFI
same,fluorescence intensity,[15]; [22],16.8 MFI
same,fluorescence intensity,[15]; [23],16 MFI
same,fluorescence intensity,[15]; [24],14.2 MFI
same,fluorescence intensity,[15]; [25],16.5 MFI
same,fluorescence intensity,[15]; [26],14.5 MFI
same,fluorescence intensity,[15]; [27],16.5 MFI
same,fluorescence intensity,[15]; [28],17.5 MFI
same,fluorescence intensity,[15]; [29],27.5 MFI
same,fluorescence intensity,[16]; [22],13.5 MFI
same,fluorescence intensity,[16]; [23],15 MFI
same,fluorescence intensity,[16]; [24],15 MFI
same,fluorescence intensity,[16]; [25],14.8 MFI
same,fluorescence intensity,[16]; [26],14.5 MFI
same,fluorescence intensity,[16]; [27],16.5 MFI
same,fluorescence intensity,[16]; [28],24 MFI
same,fluorescence intensity,[16]; [29],82.5 MFI
same,fluorescence intensity,[17]; [22],20 MFI
same,fluorescence intensity,[17]; [23],21.8 MFI
same,fluorescence intensity,[17]; [24],22.5 MFI
same,fluorescence intensity,[17]; [25],22 MFI
same,fluorescence intensity,[17]; [26],21.5 MFI
same,fluorescence intensity,[17]; [27],23.5 MFI
same,fluorescence intensity,[17]; [28],29.5 MFI
same,fluorescence intensity,[17]; [29],43 MFI
same,fluorescence intensity,[18]; [22],20.5 MFI
same,fluorescence intensity,[18]; [23],19.5 MFI
same,fluorescence intensity,[18]; [24],16.5 MFI
same,fluorescence intensity,[18]; [25],18.5 MFI
same,fluorescence intensity,[18]; [26],20 MFI
same,fluorescence intensity,[18]; [27],20 MFI
same,fluorescence intensity,[18]; [28],21.8 MFI
same,fluorescence intensity,[18]; [29],33 MFI
same,fluorescence intensity,[19]; [22],18.8 MFI
same,fluorescence intensity,[19]; [23],17.8 MFI
same,fluorescence intensity,[19]; [24],18 MFI
same,fluorescence intensity,[19]; [25],18 MFI
same,fluorescence intensity,[19]; [26],17 MFI
same,fluorescence intensity,[19]; [27],17.5 MFI
same,fluorescence intensity,[19]; [28],19 MFI
same,fluorescence intensity,[19]; [29],25.5 MFI
same,fluorescence intensity,[20]; [22],16.5 MFI
same,fluorescence intensity,[20]; [23],16 MFI
same,fluorescence intensity,[20]; [24],16 MFI
same,fluorescence intensity,[20]; [25],16 MFI
same,fluorescence intensity,[20]; [26],16.5 MFI
same,fluorescence intensity,[20]; [27],16.5 MFI
same,fluorescence intensity,[20]; [28],16.5 MFI
same,fluorescence intensity,[20]; [29],25 MFI
same,fluorescence intensity,[21]; [22],15.2 MFI
same,fluorescence intensity,[21]; [23],14.5 MFI
same,fluorescence intensity,[21]; [24],13.5 MFI
same,fluorescence intensity,[21]; [25],14.2 MFI
same,fluorescence intensity,[21]; [26],15 MFI
same,fluorescence intensity,[21]; [27],16 MFI
same,fluorescence intensity,[21]; [28],18 MFI
same,fluorescence intensity,[21]; [29],23.2 MFI

# Some of the entries above, reformatted:
binder	measurement	setting	value
B2	fluorescence intensity	[12]; [27]	16 MFI
same	fluorescence intensity	[17]; [27]	23.5 MFI
same	fluorescence intensity	[20]; [24]	16 MFI

# Part of the list above, with bars between the fields.
binder | measurement | setting | value
B1 | fluorescence intensity | [6]; [26] | 33.5 MFI
B2 | fluorescence intensity | [14]; [24] | 15.5 MFI
same | fluorescence intensity | [15]; [24] | 14.2 MFI
same | fluorescence intensity | [17]; [29] | 43 MFI
same | fluorescence intensity | [19]; [27] | 17.5 MFI
